Results reported in article PMC10050012.
These are yes or no findings as the source states them, for the method shown. For some of these results: Binding calls can cover weak binding; strength is not graded here. For some of these results: In cells and extracts the contact can be indirect.

Key:
[1] = target: PI3K-p85 regulatory subunit (human (endogenous in NB4)); experiment: far-Western, overlay or dot blot; modified far-western blot with disuccinimidyl suberate (DSS): bait proteins immunoprecipitated from plasma membrane, renatured and incubated with plasma membrane lysates; bound prey detected by a primary antibody; NB4 WT cells with ATRA for 5 days, also for 2 days, and NB4 WT CD18-/- cells; only the target purified
[2] = target: AKT/Protein Kinase B (human (endogenous in NB4)); experiment: as above
[3] = target: PI3K/p110 (human (endogenous in NB4)); experiment: as above
[4] = target: PI3K-p85 regulatory subunit (human (endogenous in NB4)); experiment: condition: only cells treated with ATRA + NC9 (30 μM) for 5 days; co-IP; as a1, NB4 WT cells treated with ATRA + NC9 (30 μM, TG2 inhibitor) for 5 days
[5] = target: AKT/Protein Kinase B (human (endogenous in NB4)); experiment: as above
[6] = target: PI3K-p85 regulatory subunit (human (endogenous in NB4)); experiment: condition: only cells treated with ATRA + PP2 (20 μM) for 5 days; co-IP; as a1, NB4 WT cells treated with ATRA + PP2 (20 μM, c-SRC inhibitor) for 5 days
[7] = target: AKT/Protein Kinase B (human (endogenous in NB4)); experiment: as above
[8] = target: PI3K-p85 regulatory subunit (human (endogenous in NB4)); experiment: co-IP; immunoprecipitation from the plasma membrane fraction (and total cell lysate) of ATRA-treated NB4 WT cells with a polyclonal TG2 antibody and, reciprocally, with antibodies to mTOR, AKT, CD18, p85, PI3K/p110, PTEN and c-SRC; Western blot
[9] = target: AKT/Protein Kinase B (human (endogenous in NB4)); experiment: as above
[10] = target: PI3K/p110 (human (endogenous in NB4)); experiment: as above

B1: transglutaminase 2 (protein, UniProt P21980 1-687)
chain: MAEELVLERCDLELETNGRDHHTADLCREKLVVRRGQPFWLTLHFEGRNYEASVDSLTFSVVTGPAPSQEAGTKARFPLRDAVEEGDWTATVVDQQDCTLSLQLTTPANAPIGLYRLSLEASTGYQGSSFVLGHFILLFNAWCPADAVYLDSEEERQEYVLTQQGFIYQGSAKFIKNIPWNFGQFEDGILDICLILLDVNPKFLKNAGRDCSRRSSPVYVGRVVSGMVNCNDDQGVLLGRWDNNYGDGVSPMSWIGSVDILRRWKNHGCQRVKYGQCWVFAAVACTVLRCLGIPTRVVTNYNSAHDQNSNLLIEYFRNEFGEIQGDKSEMIWNFHCWVESWMTRPDLQPGYEGWQALDPTPQEKSEGTYCCGPVPVRAIKEGDLSTKYDAPFVFAEVNADVVDWIQQDDGSVHKSINRSLIVGLKISTKSVGRDEREDITHTYKYPEGSSEEREAFTRANHLNKLAEKEETGMAMRIRVGQSMNMGSDFDVFAHITNNTAEEYVCRLLLCARTVSYNGILGPECGTKYLLNLNLEPFSEKSVPLCILYEKYRDCLTESNLIKVRALLVEPVINSYLLAERDLYLENPEIKIRILGEPKQKRKLVAEVSLQNPLPVALEGCTFTVEGAGLTEEQKTVEIPDPVEAGEEVKVRMDLLPLHMGLHKLVVNFESDKLKAVKGFRNVIIGPA
[1]
  binding: binds
[2]
  binding: binds
[3]
  binding: binds
[4]
  binding: no binding
[5]
  binding: no binding
[6]
  binding: no binding
[7]
  binding: no binding
[8]
  binding: binds
[9]
  binding: binds
[10]
  binding: binds
